ChEMBL document CHEMBL1146004, “Effect of substitution on novel tricyclic HIV-1 integrase inhibitors” (Bioorg Med Chem Lett, 2006)
Values after ≈ are worked out from the molar mass of the structure shown.

Assay: physchem
Settings: buffer, pH 2.2

Question: Which solubility does the source give for `COc1c2c(c(O)c3ncccc13)C(=O)N(Cc1ccc(F)cc1)C2` here?
Answer: 285 µM (≈ 96.4 µg/mL)
